Data on seven molecules can be found in paper PMC7413564, “Phase separation of Arabidopsis EMB1579 controls transcription, mRNA splicing, and development” (PLoS Biology, 2020).

Results are given in words; binding and its absence hold for the method and conditions named. Binding seen in cells or lysates may run through a third protein. Some binding calls cover weakened binding; strength is not graded here. Where a sequence is shown, tags or fusion partners need not be part of it.

T1: EMB1579-NLuc (Arabidopsis thaliana) (UniProt F4IS91)
T1 sequence: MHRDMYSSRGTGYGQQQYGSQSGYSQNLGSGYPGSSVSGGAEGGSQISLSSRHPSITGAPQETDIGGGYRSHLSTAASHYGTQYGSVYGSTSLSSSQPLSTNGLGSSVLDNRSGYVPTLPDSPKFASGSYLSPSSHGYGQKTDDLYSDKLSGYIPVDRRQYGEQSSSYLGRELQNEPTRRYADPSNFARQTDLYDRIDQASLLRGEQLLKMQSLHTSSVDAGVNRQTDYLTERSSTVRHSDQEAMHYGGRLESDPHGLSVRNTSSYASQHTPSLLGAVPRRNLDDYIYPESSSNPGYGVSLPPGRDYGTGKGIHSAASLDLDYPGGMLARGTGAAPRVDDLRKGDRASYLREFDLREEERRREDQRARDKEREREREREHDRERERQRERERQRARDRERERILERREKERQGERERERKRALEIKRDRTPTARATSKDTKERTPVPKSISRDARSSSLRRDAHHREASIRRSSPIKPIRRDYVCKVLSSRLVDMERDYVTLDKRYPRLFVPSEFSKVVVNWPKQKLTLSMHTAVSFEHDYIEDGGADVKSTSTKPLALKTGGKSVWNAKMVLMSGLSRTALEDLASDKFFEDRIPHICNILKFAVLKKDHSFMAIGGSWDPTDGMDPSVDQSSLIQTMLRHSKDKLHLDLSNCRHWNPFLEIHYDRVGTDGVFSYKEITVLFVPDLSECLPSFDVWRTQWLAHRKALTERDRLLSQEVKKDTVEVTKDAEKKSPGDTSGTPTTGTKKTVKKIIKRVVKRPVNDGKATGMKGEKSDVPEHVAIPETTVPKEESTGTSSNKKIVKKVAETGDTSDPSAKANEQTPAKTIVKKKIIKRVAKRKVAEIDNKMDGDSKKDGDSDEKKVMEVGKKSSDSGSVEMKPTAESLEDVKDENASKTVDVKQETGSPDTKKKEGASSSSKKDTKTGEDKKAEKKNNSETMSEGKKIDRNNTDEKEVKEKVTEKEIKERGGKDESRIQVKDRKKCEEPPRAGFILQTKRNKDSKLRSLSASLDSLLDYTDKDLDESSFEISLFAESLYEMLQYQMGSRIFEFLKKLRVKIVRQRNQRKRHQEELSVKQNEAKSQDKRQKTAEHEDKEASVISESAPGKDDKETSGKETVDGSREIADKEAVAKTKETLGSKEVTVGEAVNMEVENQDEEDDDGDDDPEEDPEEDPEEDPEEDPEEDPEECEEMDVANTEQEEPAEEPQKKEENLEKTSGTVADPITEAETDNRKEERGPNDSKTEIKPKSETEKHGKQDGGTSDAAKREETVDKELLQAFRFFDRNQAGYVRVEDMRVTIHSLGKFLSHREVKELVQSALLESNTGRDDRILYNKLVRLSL

B1: mCherry-DDB1B (natural protein, Arabidopsis thaliana, UniProt O49552 1-1088, looked up)
chain: MSVWNYAVTAQKPTCVTHSCVGNFTSPQELNLIVAKSTRIEIHLLSPQGLQTILDVPLYGRIATMELFRPHGEAQDFLFVATERYKFCVLQWDYESSELITRAMGDVSDRIGRPTDNGQIGIIDPDCRVIGLHLYDGLFKVIPFDNKGQLKEAFNIRLEELQVLDIKFLYGCTKPTIAVLYQDNKDARHVKTYEVSLKDKNFVEGPWSQNNLDNGADLLIPVPSPLCGVLIIGEETIVYCSANAFKAIPIRPSITKAYGRVDLDGSRYLLGDHAGLIHLLVITHEKEKVTGLKIELLGETSIASSISYLDNAVVFVGSSYGDSQLIKLNLQPDAKGSYVEILEKYVNLGPIVDFCVVDLERQGQGQVVTCSGAYKDGSLRIVRNGIGINEQASVELQGIKGMWSLKSSIDEAFDTFLVVSFISETRILAMNIEDELEETEIEGFLSEVQTLFCHDAVYNQLVQVTSNSVRLVSSTTRELRNKWDAPAGFSVNVATANASQVLLATGGGHLVYLEIGDGTLTEVKHVLLEYEVSCLDINPIGDNPNYSQLAAVGMWTDISVRIFVLPDLTLITKEELGGEIIPRSVLLCAFEGISYLLCALGDGHLLNFQLDTSCGKLRDRKKVSLGTRPITLRTFSSKSATHVFAASDRPAVIYSNNKKLLYSNVNLKEVSHMCPFNSAAFPDSLAIAREGELTIGTIDDIQKLHIRTIPIGEHARRICHQEQTRTFAISCLRNEPSAEESESHFVRLLDAQSFEFLSSYPLDAFECGCSILSCSFTDDKNVYYCVGTAYVLPEENEPTKGRILVFIVEEGRLQLITEKETKGAVYSLNAFNGKLLASINQKIQLYKWMLRDDGTRELQSECGHHGHILALYVQTRGDFIAVGDLMKSISLLIYKHEEGAIEERARDYNANWMTAVEILNDDIYLGTDNCFNIFTVKKNNEGATDEERARMEVVGEYHIGEFVNRFRHGSLVMKLPDSDIGQIPTVIFGTVSGMIGVIASLPQEQYAFLEKLQTSLRKVIKGVGGLSHEQWRSFNNEKRTAEAKGYLDGDLIESFLDLSRGKMEEISKGMDVQVEELCKRVEELTRLH
notes: DDB1B, Arabidopsis; amplified with DDB1B-EcoRI-F/DDB1B-SalI-R2 from pFGC5941-DDB1B-RFP and moved into pColdI behind mCherry; source: E. coli BL21 (DE3) (pColdI-mCherry-DDB1B), purified (Ni-NTA); not shown: mCherry, N-terminal, kept
B2: CLuc-CDKC;2 (protein, UniProt Q8W4P1 1-513)
chain: MAAAAFGQLNLEEPPPIWGSRSVDCFEKLEQIGEGTYGQVYMAKEIKTGEIVALKKIRMDNEREGFPITAIREIKILKKLHHENVIHLKEIVTSPGRDRDDQGKPDNNKYKGGIYMVFEYMDHDLTGLADRPGLRFTVPQIKCYMKQLLTGLHYCHVNQVLHRDIKGSNLLIDNEGNLKLADFGLARSYSHDHTGNLTNRVITLWYRPPELLLGATKYGPAIDMWSVGCIFAELLNGKPILPGKTENEQLNKIYELCGSPDESNWPGVSKMPWYNQMKSSRPLKRRVREIYRHFDRHALELLEKMLVLDPSQRICAKDALDAEYFWTDPLPCDPKSLPTYESSHEFQTKKKRQQMRHNEEAAKKQKLQHPQQQHSRLPPQQHGVGQSHAAPLWPAGPNHPMNNNAPPPQIPAGGHYYGGKPRGGAPVPNRYPPSGNQTGGYNNQSRGGYSSGAYPPQGRGAPYGAGPRGPSGGYGVGPPNYSQGGGQYGGSGGSGRGQNPMGGARNQQYGWQP
B3: CLuc-CHR28 (protein, UniProt Q94BR5 1-981)
chain: MDSAIDISSDSDVEIQETRTRPQHPPRIAEGSHRRDLSTLRPHFLSGSSSGANGHTKTGLTNLDSRNGFESKPLPRAEHHTHIPGNGSIVTSRIPNISVGDYEKFSSQQAFKRTHPPTFSRPPFPPRPDIGTSNGNASHFRGGAHDDLGMGRVTNGTRILPPSVAHGTSASPSHFNGLSDPMHRNGIGEERNSENDERLIYQAALQELNQPKSEVDLPAGLLSVPLMKHQKIALAWMFQKETNSLHCMGGILADDQGLGKTVSTIALILKQMHEAKLKSKNSGNQEAEALDLDADDESENAFEKPESKASNGSGVNGDSGIKKAKGEEASTSTRKFNRKRPAAGTLIVCPASVVRQWARELDEKVTDEAKLSVLIYHGGNRTKDPIELAKYDVVMTTYAIVSNEVPKQPLVDDDENDEKNSEKYGLASGFSINKKRKNVVGTTKKSKKKKGNNNAGDSSDPDSGTLAKVGWFRVVLDEAQTIKNHRTQVARACCGLRAKRRWCLSGTPIQNTIDDLYSYFRFLKYDPYAVYKSFCHQIKGPISRNSLQGYKKLQAVLRAIMLRRTKGTLLDGQPIINLPPKTINLSQVDFSVEERSFYVKLESDSRSQFKAYAAAGTLNQNYANILLMLLRLRQACDHPQLVKRYNSDSVGKVSEEAVKKLPKEDLVSLLSRLESSPICCVCHDPPEDPVVTLCGHIFCYQCVSDYITGDEDTCPAPRCREQLAHDVVFSKSTLRSCVADDLGCSSSEDNSHDKSVFQNGEFSSSKIKAVLDILQSLSNQGTSNSTQNGQMASSSQQPNDDDDDDDDDVTIVEKTSLKSTPSNGGPIKTIIFSQWTGMLDLVELSLIENSIEFRRLDGTMSLIARDRAVKEFSNDPDVKVMIMSLKAGNLGLNMIAACHVILLDLWWNPTTEDQAIDRAHRIGQTRPVTVTRITIKNTVEDRILALQEEKRKMVASAFGEDHGGSSATRLTVDDLKYLFMV
B4: CLuc-NRP1 (protein, UniProt Q9CA59 1-256)
chain: MVADKSKKSKIEEKGEEENLEQIDAELVLSIEKLQEIQDDLEKINEKASDEVLEVEQKYNVIRKPVYDKRNEVIQSIPGFWMTAFLSHPALGDLLTEEDQKIFKYLNSLEVEDAKDVKSGYSITFHFTSNPFFEDAKLTKTFTFLEEGTTKITATPIKWKEGKGLPNGVNHDDKKGNKRALPEESFFTWFTDAQHKEDAGDEIHDEVADIIKEDLWSNPLTYFNNDADEEDFDGDDDGDEEGEEDDDDEEEEDGEE
B5: CLuc-CUL4 (protein, UniProt Q8LGH4 1-792)
chain: MSLPTKRSTFSAASASDDSSYSSPPMKKAKNDLHHSPQHPNTADKVVGFHMEEDPTPAAANLSRKKATLPQPTKKFVIKLNKAKPTLPTNFEENTWEKLQSAIRAIFLKKKISFDLESLYQAVDNLCLHKLDGKLYDQIEKECEEHISAALQSLVGQNTDLTVFLSRVEKCWQDFCDQMLMIRSIALTLDRKYVIQNPNVRSLWEMGLQLFRKHLSLAPEVEQRTVKGLLSMIEKERLAEAVNRTLLSHLLKMFTALGIYMESFEKPFLEGTSEFYAAEGMKYMQQSDVPEYLKHVEGRLHEENERCILYIDAVTRKPLITTVERQLLERHILVVLEKGFTTLMDGRRTEDLQRMQTLFSRVNALESLRQALSSYVRKTGQKIVMDEEKDKDMVQSLLDFKASLDIIWEESFYKNESFGNTIKDSFEHLINLRQNRPAELIAKFLDEKLRAGNKGTSEEELESVLEKVLVLFRFIQGKDVFEAFYKKDLAKRLLLGKSASIDAEKSMISKLKTECGSQFTNKLEGMFKDIELSKEINESFKQSSQARTKLPSGIEMSVHVLTTGYWPTYPPMDVKLPHELNVYQDIFKEFYLSKYSGRRLMWQNSLGHCVLKADFSKGKKELAVSLFQAVVLMLFNDAMKLSFEDIKDSTSIEDKELRRTLQSLACGKVRVLQKNPKGRDVEDGDEFEFNDEFAAPLYRIKVNAIQMKETVEENTSTTERVFQDRQYQIDAAIVRIMKTRKVLSHTLLITELFQQLKFPIKPADLKKRIESLIDREYLEREKSNPQIYNYLA
B6: CLuc-MSI4 (protein, UniProt O22607 1-507)
chain: MESDEAAAVSPQATTPSGGTGASGPKKRGRKPKTKEDSQTPSSQQQSDVKMKESGKKTQQSPSVDEKYSQWKGLVPILYDWLANHNLVWPSLSCRWGPQLEQATYKNRQRLYLSEQTDGSVPNTLVIANCEVVKPRVAAAEHISQFNEEARSPFVKKYKTIIHPGEVNRIRELPQNSKIVATHTDSPDVLIWDVETQPNRHAVLGAANSRPDLILTGHQDNAEFALAMCPTEPFVLSGGKDKSVVLWSIQDHITTIGTDSKSSGSIIKQTGEGTDKNESPTVGPRGVYHGHEDTVEDVAFSPTSAQEFCSVGDDSCLILWDARTGTNPVTKVEKAHDADLHCVDWNPHDDNLILTGSADNTVRLFDRRKLTANGVGSPIYKFEGHKAAVLCVQWSPDKSSVFGSSAEDGLLNIWDYDRVSKKSDRAAKSPAGLFFQHAGHRDKVVDFHWNASDPWTIVSVSDDCETTGGGGTLQIWRMSDLIYRPEEEVVAELEKFKSHVMTCASKP
B7: CLuc-SKIP (protein, UniProt O80653 1-613)
chain: MKSLNDLPAPKSTTTTYYDHSNDAWFKNRVTESETVKSSSIKFKVVPAYLNRQGLRPKNPEDFGDGGAFPEIHLPQYPLLMGKNKSNKPGAKTLPVTVDAQGNVVFDAIVRQNENSRKIVYSQHKDIIPKFLKNEGDLGTVVDEEEELQKEIQETAEETKAAIEKIVNVRLSAAQPSNIARQSGDSQYIKYKPSQQSSAFNSGAKERIIRMVEMPVDPLDPPKFKHKRVPRASGSPPVPVMHSPPRPVTVKDQQDWKIPPCISNWKNPKGYTIPLDKRLAADGRGLQDVQINDNFAKLSEALYVAEQKAREAVSMRSKVQKEMVMKDKERKEQELRALAQKARSERTGAAMSMPVSSDRGRSESVDPRGDYDNYDQDRGREREREEPQETREEREKRIQREKIREERRRERERERRLDAKDAAMGKKSKITRDRDRDISEKVALGMASTGGKGGGEVMYDQRLFNQDKGMDSGFAADDQYNLYDKGLFTAQPTLSTLYKPKKDNDEEMYGNADEQLDKIKNTERFKPDKAFTGASERVGSKRDRPVEFEKEEEQDPFGLEKWVSDLKKGKKPLDKIGSGGTMRASGGGGSSSRDDDHGGSGRTKINFERSDRR

This test concerns the target T1, EMB1579-NLuc (Arabidopsis thaliana). As to the kind of experiment: split reporter; firefly split luciferase complementation imaging; NLuc and CLuc fusions co-infiltrated by Agrobacterium into N. benthamiana leaves, 60 hours, 1 mM D-luciferin.
Consider B1, for which the binding entry was “binds”.

Take B2: the binding entry was “binds”.

For B3, the binding entry is reported as “binds”.

As for B4, the binding result is recorded as “binds”.

As for B5, the binding result is “binds”.

As for B6, the binding result was “binds”.

For B7, the binding result was “binds”.
